These are yes or no findings as the source states them, for the method shown. Binding seen in cells or lysates may run through a third protein. Some results given as binding are weak or reduced against the parent protein; the word gives no strength.
Molecular target: T1, coiled-coil-helix-coiled-coil-helix domain-containing protein 4 (CHCHD4), endogenous in HOS cells (human (endogenous in HOS)) (UniProt Q8N4Q1)
T1 sequence: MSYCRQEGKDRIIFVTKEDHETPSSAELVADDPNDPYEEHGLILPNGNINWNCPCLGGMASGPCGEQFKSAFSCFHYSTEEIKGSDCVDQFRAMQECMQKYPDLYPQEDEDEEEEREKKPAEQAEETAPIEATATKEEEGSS
Test: co-IP; anti-CHCHD4 antibody on Dynabeads M-280, HOS cell lysate in 1% NP-40 buffer (50 mmol/L Tris pH 8.0, 150 mmol/L NaCl), overnight at 4 °C; blot for AIF and CHCHD4; cells treated with 0.002% DMSO or 8.3 μmol/L M30-E05 for 1, 2, 4, 6 h

Sequences of proteins named here, by UniProt entry; tags and fusion partners are left off. Residues count along the entry.
UniProt O95831, residues 102-613: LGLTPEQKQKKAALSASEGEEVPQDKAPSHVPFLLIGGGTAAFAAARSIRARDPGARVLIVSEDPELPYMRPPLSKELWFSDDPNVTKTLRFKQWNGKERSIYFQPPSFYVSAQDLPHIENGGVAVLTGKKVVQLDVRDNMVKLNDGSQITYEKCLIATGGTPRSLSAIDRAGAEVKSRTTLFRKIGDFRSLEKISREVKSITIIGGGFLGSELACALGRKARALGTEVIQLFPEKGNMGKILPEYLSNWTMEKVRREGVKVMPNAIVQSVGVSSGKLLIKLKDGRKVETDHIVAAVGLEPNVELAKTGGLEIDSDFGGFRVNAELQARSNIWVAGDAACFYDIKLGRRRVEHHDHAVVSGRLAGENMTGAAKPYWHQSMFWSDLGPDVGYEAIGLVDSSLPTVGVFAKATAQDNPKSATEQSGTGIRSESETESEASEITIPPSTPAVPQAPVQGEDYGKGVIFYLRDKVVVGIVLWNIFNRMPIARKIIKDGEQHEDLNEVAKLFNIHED

Q: With “apoptosis-inducing factor (AIF), endogenous in HOS cells (from UniProt O95831 102-613)” as the substance, how does the binding read?
A: The binding was “binds”.

Source: publication PMC13589956, “Engineered flavonoid disrupts mitochondrial AIF/CHCHD4 complex for targeted cancer therapy” (Acta Pharmaceutica Sinica. B, 2026)
